Assay: Extractables from cured films (HPLC-MS)
Conditions: 50 μm cured film, 60° C. for 10 days
[1] = Extraction Solvent Acetonitrile

Compound | Concentrations of extractables (ppm) Mesitaldehyde [1] [ppm] | Concentrations of extractables (ppm) Mesitaldehyde (Extraction Solvent Ethanol) [ppm]
Cc1cc(C)c(C(=O)P(=O)(c2ccccc2)c2ccccc2)c(C)c1 [SpeedCure TPO, 2,4,6-trimethylbenzoyl diphenyl phosphine oxide] | 293 | 316
Cc1cc(C)c(C(=O)P(=O)(C(=O)c2c(C)cc(C)cc2C)c2ccccc2)c(C)c1 [Speedcure BPO, bis-(2,4,6-trimethylbenzoyl)phenyl phosphine oxide] | 713 | 656
CCOP(=O)(C(=O)c1c(C)cc(C)cc1C)c1ccccc1 (stereo not drawn) [Speedcure TPO-L, Ethyl (2,4,6-trimethylbenzoyl)phenyl phosphinate] | 396 | 413

— US20260209256A1, “PHOSPHINE OXIDE-BASED PHOTOINITIATORS” (Arkema France, priority 2022, published 2026)
